Some of the results follow.
Columns and labels:
Assay in all cases: log2 fold change, soluble protein after heating vs DMSO (PISA); higher = thermal stabilisation; K562 lysate, 10 uM; active = over 0.2 and 3.5 SD of the protein, either way, in both replicates (recomputed)
[1] = compound: NCC(=O)Nc1ccc(-n2nc(C(F)(F)F)cc2-c2ccc3c(ccc4ccccc43)c2)cc1
Method in brief: (§1)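 K562 pellets were dounce-homogenised in PBS pH 7.4 with 1 mM MgCl2, and the crude extract at 1 mg/mL protein was treated with 10 μM compound for 30 min. Aliquots were heated for 3 min across 48°C-58°C, pooled, and brought to 0.5% NP-40 at 4°C; soluble protein was the supernatant after 21,000xg for 90 min. Soluble protein was quantified by TMTpro 16plex LC-MS/MS with channel sums equalised, and reported as log2 fold change in thermal stability against DMSO controls, with values from duplicates.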

The chains behind the UniProt entries cited, without tags or fusion partners. Where a name states a change or a piece, a line headed by the entry shows the natural chain unless it says otherwise.
UniProt Q53EU6: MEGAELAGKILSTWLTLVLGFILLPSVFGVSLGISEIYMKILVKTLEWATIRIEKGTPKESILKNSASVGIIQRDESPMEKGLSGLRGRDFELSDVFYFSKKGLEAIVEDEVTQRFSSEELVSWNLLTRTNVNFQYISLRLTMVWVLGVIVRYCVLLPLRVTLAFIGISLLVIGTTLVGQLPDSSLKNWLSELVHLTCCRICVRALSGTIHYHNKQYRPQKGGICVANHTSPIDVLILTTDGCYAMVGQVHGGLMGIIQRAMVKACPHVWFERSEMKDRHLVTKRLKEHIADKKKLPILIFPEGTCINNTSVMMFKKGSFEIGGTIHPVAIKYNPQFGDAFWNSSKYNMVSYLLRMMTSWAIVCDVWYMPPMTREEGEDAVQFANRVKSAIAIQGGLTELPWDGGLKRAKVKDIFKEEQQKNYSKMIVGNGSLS
UniProt Q8IVV7: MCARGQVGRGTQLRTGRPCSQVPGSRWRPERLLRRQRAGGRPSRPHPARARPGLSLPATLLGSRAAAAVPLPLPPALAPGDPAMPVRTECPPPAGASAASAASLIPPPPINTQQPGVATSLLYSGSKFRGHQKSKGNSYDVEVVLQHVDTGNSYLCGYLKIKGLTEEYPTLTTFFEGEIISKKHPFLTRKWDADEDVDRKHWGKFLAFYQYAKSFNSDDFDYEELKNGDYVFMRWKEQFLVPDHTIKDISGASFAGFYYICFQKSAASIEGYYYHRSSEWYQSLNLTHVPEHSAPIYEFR
UniProt O14653: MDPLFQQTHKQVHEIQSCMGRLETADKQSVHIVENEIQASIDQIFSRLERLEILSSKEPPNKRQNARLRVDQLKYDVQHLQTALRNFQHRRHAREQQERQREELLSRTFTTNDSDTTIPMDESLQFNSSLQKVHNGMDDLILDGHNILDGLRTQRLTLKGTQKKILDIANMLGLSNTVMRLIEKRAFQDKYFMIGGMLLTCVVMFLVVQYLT
UniProt Q8N335: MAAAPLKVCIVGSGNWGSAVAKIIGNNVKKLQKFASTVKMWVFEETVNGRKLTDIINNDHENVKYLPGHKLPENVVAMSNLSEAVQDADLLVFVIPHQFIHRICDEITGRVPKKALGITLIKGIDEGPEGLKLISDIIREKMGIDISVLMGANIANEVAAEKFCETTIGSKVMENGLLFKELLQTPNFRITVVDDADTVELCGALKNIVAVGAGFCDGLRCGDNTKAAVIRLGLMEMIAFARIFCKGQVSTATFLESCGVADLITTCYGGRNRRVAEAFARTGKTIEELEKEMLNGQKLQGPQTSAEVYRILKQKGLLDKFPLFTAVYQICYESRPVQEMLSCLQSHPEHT
UniProt P13224: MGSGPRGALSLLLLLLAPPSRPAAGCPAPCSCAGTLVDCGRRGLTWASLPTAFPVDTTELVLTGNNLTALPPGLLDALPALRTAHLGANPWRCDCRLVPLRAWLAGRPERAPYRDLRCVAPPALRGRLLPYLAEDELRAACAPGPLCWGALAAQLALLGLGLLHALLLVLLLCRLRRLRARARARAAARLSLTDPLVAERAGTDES
UniProt Q13098: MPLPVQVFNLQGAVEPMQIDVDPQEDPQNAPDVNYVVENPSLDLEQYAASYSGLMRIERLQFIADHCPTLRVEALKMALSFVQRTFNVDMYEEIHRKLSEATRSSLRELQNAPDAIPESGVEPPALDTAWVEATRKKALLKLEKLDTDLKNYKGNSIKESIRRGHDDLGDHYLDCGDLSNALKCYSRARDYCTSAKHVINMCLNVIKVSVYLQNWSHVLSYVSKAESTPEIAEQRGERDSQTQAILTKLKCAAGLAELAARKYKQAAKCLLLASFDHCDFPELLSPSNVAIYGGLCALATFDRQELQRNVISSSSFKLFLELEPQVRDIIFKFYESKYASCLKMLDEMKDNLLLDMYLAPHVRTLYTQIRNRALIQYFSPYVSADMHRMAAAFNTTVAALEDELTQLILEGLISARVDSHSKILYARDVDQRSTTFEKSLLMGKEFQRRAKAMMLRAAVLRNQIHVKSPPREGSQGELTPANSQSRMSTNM
UniProt Q08378: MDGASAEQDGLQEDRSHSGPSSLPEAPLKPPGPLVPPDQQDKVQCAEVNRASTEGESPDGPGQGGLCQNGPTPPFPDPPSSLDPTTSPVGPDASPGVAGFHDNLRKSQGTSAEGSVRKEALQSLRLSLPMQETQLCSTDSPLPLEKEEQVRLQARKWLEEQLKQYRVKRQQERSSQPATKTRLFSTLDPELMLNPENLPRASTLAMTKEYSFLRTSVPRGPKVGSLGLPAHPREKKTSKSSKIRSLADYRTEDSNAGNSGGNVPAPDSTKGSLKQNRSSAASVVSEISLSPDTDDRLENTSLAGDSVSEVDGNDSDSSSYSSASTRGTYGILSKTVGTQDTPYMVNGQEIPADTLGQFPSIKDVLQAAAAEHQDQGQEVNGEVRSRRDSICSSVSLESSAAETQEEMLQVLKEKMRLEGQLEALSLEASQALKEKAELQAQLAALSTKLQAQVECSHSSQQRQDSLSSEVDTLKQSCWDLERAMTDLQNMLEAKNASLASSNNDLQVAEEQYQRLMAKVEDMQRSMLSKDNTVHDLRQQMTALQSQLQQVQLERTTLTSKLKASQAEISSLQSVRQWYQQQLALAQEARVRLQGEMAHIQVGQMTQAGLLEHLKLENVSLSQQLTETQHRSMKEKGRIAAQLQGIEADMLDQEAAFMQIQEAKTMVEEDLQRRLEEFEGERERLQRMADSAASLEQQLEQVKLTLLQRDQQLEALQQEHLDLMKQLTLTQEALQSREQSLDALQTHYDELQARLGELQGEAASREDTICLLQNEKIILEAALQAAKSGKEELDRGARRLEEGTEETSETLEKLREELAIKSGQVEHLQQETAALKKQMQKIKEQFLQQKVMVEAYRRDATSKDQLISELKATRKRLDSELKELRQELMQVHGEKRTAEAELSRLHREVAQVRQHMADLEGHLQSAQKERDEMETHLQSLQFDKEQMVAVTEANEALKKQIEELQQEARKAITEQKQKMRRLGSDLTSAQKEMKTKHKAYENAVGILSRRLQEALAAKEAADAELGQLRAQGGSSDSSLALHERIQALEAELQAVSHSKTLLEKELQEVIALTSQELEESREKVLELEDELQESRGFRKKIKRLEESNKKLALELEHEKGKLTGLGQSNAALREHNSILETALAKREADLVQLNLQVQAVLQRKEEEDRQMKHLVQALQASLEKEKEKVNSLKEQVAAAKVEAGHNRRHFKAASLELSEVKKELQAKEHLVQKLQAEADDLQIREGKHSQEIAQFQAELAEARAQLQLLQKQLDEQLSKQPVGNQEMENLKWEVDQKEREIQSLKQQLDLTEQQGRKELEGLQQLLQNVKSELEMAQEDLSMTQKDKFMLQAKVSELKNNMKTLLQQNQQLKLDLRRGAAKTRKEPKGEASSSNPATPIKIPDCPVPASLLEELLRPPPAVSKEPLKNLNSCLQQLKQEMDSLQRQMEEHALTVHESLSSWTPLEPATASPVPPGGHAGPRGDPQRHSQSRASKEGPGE
UniProt Q14344, whole entry, looked up: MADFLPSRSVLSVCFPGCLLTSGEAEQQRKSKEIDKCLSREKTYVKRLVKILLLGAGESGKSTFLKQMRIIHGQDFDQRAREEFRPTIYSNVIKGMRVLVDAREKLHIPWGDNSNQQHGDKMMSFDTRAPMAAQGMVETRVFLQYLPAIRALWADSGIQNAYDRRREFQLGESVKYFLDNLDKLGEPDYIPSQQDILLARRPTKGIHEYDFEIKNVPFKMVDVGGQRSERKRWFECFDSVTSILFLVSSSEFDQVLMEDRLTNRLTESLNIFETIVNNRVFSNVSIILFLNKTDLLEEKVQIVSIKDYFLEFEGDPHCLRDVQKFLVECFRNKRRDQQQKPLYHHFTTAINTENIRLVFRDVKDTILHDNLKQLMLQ
UniProt P04899, whole entry, looked up: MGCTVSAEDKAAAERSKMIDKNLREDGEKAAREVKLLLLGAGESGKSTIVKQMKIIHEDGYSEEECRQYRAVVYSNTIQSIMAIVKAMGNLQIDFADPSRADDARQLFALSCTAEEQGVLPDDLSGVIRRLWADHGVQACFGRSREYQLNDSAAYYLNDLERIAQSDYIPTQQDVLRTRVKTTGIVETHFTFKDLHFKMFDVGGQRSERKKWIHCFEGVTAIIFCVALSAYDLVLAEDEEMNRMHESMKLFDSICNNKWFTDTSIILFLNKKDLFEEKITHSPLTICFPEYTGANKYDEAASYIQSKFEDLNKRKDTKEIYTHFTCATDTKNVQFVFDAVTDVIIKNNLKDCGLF
UniProt Q9H3K2: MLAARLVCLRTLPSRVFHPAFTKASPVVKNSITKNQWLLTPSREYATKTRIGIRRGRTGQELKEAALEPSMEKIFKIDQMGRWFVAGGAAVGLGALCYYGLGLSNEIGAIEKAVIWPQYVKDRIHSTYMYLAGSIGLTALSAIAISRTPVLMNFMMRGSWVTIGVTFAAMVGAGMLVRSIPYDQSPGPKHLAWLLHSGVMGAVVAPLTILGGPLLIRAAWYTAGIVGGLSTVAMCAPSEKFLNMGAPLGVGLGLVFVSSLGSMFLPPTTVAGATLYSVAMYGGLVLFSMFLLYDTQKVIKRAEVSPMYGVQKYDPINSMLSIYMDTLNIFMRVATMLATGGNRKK
UniProt P60983, whole entry, looked up: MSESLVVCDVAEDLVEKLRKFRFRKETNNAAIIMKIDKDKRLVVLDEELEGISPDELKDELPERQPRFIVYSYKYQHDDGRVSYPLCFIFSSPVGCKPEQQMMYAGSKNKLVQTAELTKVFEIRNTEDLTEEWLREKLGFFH
UniProt Q8TDQ7: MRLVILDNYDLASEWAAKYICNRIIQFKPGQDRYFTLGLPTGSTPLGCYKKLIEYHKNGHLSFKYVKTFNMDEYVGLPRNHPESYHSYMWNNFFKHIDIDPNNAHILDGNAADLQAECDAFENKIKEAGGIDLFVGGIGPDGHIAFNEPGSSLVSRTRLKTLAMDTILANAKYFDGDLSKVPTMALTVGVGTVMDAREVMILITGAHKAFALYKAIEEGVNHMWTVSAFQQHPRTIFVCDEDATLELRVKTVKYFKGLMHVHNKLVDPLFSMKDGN
UniProt Q5T3I0: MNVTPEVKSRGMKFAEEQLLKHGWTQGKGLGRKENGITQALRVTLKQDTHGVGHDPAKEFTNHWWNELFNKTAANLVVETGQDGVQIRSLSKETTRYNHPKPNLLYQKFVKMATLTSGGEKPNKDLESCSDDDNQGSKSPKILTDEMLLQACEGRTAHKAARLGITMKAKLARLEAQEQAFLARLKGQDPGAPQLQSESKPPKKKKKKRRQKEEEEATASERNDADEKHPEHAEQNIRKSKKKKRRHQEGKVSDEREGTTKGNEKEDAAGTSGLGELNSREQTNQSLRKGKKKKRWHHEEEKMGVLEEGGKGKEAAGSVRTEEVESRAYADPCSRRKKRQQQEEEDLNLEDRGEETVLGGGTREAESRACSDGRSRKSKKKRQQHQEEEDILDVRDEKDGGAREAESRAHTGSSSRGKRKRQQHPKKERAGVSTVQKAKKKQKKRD
UniProt Q9Y3E0: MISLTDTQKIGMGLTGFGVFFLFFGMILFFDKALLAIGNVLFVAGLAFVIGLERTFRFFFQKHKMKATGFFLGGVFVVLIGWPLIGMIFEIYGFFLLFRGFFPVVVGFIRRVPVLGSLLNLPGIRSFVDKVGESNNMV
UniProt P17900: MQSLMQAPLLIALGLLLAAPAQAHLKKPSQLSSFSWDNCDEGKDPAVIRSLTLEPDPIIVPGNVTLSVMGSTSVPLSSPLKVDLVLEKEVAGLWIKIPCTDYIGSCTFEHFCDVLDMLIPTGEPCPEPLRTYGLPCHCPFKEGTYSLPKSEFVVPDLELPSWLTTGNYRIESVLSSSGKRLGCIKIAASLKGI
UniProt O60547: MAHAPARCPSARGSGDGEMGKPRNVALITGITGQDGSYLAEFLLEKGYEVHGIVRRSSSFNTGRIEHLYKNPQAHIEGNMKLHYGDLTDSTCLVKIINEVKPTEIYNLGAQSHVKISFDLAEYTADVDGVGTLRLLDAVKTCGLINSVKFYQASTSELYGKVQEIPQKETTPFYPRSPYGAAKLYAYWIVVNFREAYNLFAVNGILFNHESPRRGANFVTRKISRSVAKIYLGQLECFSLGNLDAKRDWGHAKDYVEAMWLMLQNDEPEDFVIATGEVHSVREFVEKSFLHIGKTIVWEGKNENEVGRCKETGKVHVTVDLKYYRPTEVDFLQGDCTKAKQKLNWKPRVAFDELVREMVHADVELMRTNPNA
UniProt Q9BQQ3: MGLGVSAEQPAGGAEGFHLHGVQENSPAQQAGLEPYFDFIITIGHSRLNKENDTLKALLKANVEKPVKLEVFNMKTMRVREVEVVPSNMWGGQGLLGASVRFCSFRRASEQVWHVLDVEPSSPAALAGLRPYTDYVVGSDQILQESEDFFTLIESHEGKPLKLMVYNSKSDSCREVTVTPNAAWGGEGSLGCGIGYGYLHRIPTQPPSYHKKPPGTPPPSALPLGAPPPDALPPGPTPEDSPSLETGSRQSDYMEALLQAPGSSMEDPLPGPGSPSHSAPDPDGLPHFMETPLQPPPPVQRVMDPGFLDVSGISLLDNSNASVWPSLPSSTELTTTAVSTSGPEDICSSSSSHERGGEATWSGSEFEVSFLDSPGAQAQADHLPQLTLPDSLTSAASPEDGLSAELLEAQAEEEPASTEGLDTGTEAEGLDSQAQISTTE

vorinostat = compound: O=C(CCCCCCC(=O)Nc1ccccc1)NO [vorinostat]
Method in brief: as §1

silmitasertib = compound: O=C(O)c1ccc2c(c1)nc(Nc1cccc(Cl)c1)c1ccncc12 [silmitasertib]
Method in brief: as §1

[2] = compound: O=C1NC(=O)C(c2cnc3ccccn23)=C1c1cn2c3c(cc(F)cc13)CN(C(=O)N1CCCCC1)CC2
Method in brief: as §1

entospletinib = compound: c1cn2cc(-c3ccc4cn[nH]c4c3)nc(Nc3ccc(N4CCOCC4)cc3)c2n1 [entospletinib]
Method in brief: as §1

Measured: log2 fold change

GPKOW (UniProt Q92917)
inactive: [1] 0.005 | vorinostat -0.089 | silmitasertib 0.017 | [2] -0.016 | entospletinib 0.001

GNL1 (UniProt P36915)
inactive: [1] 0.013 | vorinostat -0.023 | silmitasertib 0.017 | [2] -0.016 | entospletinib 0.032

GPAT3 (UniProt Q53EU6)
inactive: [1] -0.031 | vorinostat 0.019 | silmitasertib -0.016 | [2] 0.012 | entospletinib -0.039

GID4 (UniProt Q8IVV7)
inactive: [1] 0.063 | vorinostat -0.126 | silmitasertib 0.078 | [2] 0.008 | entospletinib 0.073

GOSR2 isoform 2 (UniProt O14653)
inactive: [1] 0.034 | vorinostat -0.014 | silmitasertib -0.028 | [2] -0.017 | entospletinib -0.05

GLS isoform 3 (UniProt O94925)
inactive: [1] 0.003 | vorinostat -0.133 | silmitasertib 0.017 | [2] 0.066 | entospletinib 0.028

GINS1 (UniProt Q14691)
inactive: [1] 0.008 | vorinostat 0.059 | silmitasertib -0.025 | [2] -0.015 | entospletinib -0.028

GMEB1 (UniProt Q9Y692)
inactive: [1] 0 | vorinostat -0.035 | silmitasertib 0.029 | [2] -0.042 | entospletinib -0.006

GLUL (UniProt P15104)
inactive: [1] 0.008 | vorinostat 0.13 | silmitasertib 0.006 | [2] -0.096 | entospletinib 0.116

GPD1L (UniProt Q8N335)
inactive: [1] -0.046 | vorinostat -0.179 | silmitasertib -0.027 | [2] -0.022 | entospletinib -0.021

GPD1 (UniProt P21695)
inactive: [1] 0.205 | vorinostat 0.187 | silmitasertib -0.046 | [2] 0.119 | entospletinib -0.024

GP1BB isoform 2 (UniProt P13224)
inactive: [1] -0.017 | vorinostat 0.142 | silmitasertib 0.016 | [2] -0.073 | entospletinib -0.112

Reprinted at random: 2 records from the list, in no set order.
GPD1L (UniProt Q8N335)
inactive: [1] -0.046 | vorinostat -0.179 | silmitasertib -0.027 | [2] -0.022 | entospletinib -0.021

GMEB1 (UniProt Q9Y692)
inactive: [1] 0 | vorinostat -0.035 | silmitasertib 0.029 | [2] -0.042 | entospletinib -0.006

Continued:

GPS1 isoform 6 (UniProt Q13098)
inactive: [1] -0.007 | vorinostat 0.054 | silmitasertib -0.011 | [2] -0.011 | entospletinib -0.019

GOLGA1 (UniProt Q92805)
inactive: [1] 0.048 | vorinostat 0.07 | silmitasertib 0.01 | [2] -0.076 | entospletinib -0.014

GPBP1 isoform 2 (UniProt Q86WP2)
inactive: [1] -0.005 | vorinostat -0.102 | silmitasertib -0.028 | [2] -0.033 | entospletinib 0.053

GOLGA3 (UniProt Q08378)
inactive: [1] 0.003 | vorinostat 0.029 | silmitasertib -0.007 | [2] 0.003 | entospletinib -0.005

GK (UniProt P32189)
inactive: [1] 0.003 | vorinostat 0.126 | silmitasertib -0.019 | [2] -0.059 | entospletinib -0.03

GNA13 (UniProt Q14344)
inactive: [1] -0.018 | vorinostat 0.084 | silmitasertib 0.021 | [2] -0.005 | entospletinib -0.014

GLYR1 (UniProt Q49A26)
inactive: [1] -0.006 | vorinostat -0.033 | silmitasertib -0.022 | [2] -0.007 | entospletinib -0.041

GNAI2 (UniProt P04899)
inactive: [1] -0.036 | vorinostat -0.045 | silmitasertib 0.017 | [2] 0.018 | entospletinib -0.031

GNL2 (UniProt Q13823)
inactive: [1] -0.041 | vorinostat -0.02 | silmitasertib 0.03 | [2] -0.03 | entospletinib 0.005

GLRX2 (UniProt Q9NS18)
inactive: [1] -0.091 | vorinostat 0.092 | silmitasertib -0.031 | [2] -0.004 | entospletinib -0.032

GPRIN1 (UniProt Q7Z2K8)
inactive: [1] 0.016 | vorinostat 0.059 | silmitasertib -0.023 | [2] -0.01 | entospletinib -0.034

GINS4 (UniProt Q9BRT9)
inactive: [1] -0.02 | vorinostat 0.048 | silmitasertib -0.032 | [2] -0.019 | entospletinib -0.018

GNA11 (UniProt P29992)
inactive: [1] 0.026 | vorinostat 0.061 | silmitasertib 0.003 | [2] -0.053 | entospletinib -0.004

GGPS1 (UniProt O95749)
inactive: [1] -0.041 | vorinostat 0.113 | silmitasertib 0.019 | [2] -0.016 | entospletinib 0.007

GORASP2 isoform 3 (UniProt Q9H8Y8)
inactive: [1] 0.003 | vorinostat 0.048 | silmitasertib -0.011 | [2] -0.009 | entospletinib 0.008

GMPPB isoform 2 (UniProt Q9Y5P6)
inactive: [1] 0.022 | vorinostat -0.089 | silmitasertib -0.011 | [2] -0.006 | entospletinib -0.028

GNAS (UniProt Q5JWF2)
inactive: [1] 0.026 | vorinostat 0.046 | silmitasertib 0 | [2] -0.015 | entospletinib 0.012

GGA3 (UniProt Q9NZ52)
inactive: [1] -0.062 | vorinostat -0.08 | silmitasertib 0.007 | [2] -0.008 | entospletinib -0.005

GIT1 (UniProt Q9Y2X7)
inactive: [1] -0.043 | silmitasertib 0.009 | [2] 0.006 | entospletinib -0.005
active: vorinostat -0.32

GOLGA2 (UniProt Q08379)
inactive: [1] 0 | vorinostat -0.089 | silmitasertib 0 | [2] 0.003 | entospletinib -0.002

GPR89A (UniProt B7ZAQ6)
inactive: [1] -0.025 | vorinostat 0.086 | silmitasertib -0.047 | [2] 0.047 | entospletinib 0.081

GOPC (UniProt Q9HD26)
inactive: [1] 0.005 | vorinostat -0.134 | silmitasertib 0.023 | [2] -0.014 | entospletinib 0.006

GHITM (UniProt Q9H3K2)
inactive: [1] -0.028 | vorinostat 0.145 | silmitasertib -0.021 | [2] 0.011 | entospletinib 0.005

GPAA1 (UniProt O43292)
inactive: [1] 0.043 | vorinostat 0.046 | silmitasertib -0.052 | [2] -0.013 | entospletinib -0.006

GMFB (UniProt P60983)
inactive: [1] -0.081 | vorinostat 0.141 | silmitasertib -0.002 | [2] -0.008 | entospletinib -0.004

GOLPH3L (UniProt Q9H4A5)
inactive: [1] -0.061 | vorinostat -0.035 | silmitasertib -0.002 | [2] 0.047 | entospletinib 0.048

GNPDA2 (UniProt Q8TDQ7)
inactive: [1] -0.014 | vorinostat 0.05 | silmitasertib -0.018 | [2] 0.019 | entospletinib -0.007

GPATCH4 isoform 3 (UniProt Q5T3I0)
inactive: [1] 0.034 | vorinostat -0.011 | silmitasertib -0.028 | [2] -0.065 | entospletinib 0.058

GLUD1 (UniProt P00367)
inactive: [1] -0.014 | vorinostat 0.179 | silmitasertib -0.002 | [2] -0.058 | entospletinib 0.003

GPBP1L1 (UniProt Q9HC44)
inactive: [1] 0.002 | vorinostat -0.152 | silmitasertib 0.06 | [2] -0.045 | entospletinib -0.051

GOT2 (UniProt P00505)
inactive: [1] -0.014 | vorinostat 0.157 | silmitasertib -0.006 | [2] 0.012 | entospletinib 0.009

GNPNAT1 (UniProt Q96EK6)
inactive: [1] -0.023 | vorinostat 0.129 | silmitasertib -0.045 | [2] -0.031 | entospletinib 0.047

GOLT1B (UniProt Q9Y3E0)
inactive: [1] -0.014 | vorinostat -0.099 | silmitasertib 0.02 | [2] 0.057 | entospletinib 0.008

GON7 (UniProt Q9BXV9)
inactive: [1] 0.025 | vorinostat 0.101 | silmitasertib 0.001 | [2] 0.019 | entospletinib -0.159

GLA (UniProt P06280)
inactive: [1] 0.004 | vorinostat 0.045 | silmitasertib 0.028 | [2] 0 | entospletinib 0.032

GM2A (UniProt P17900)
inactive: [1] -0.065 | vorinostat 0.169 | silmitasertib -0.034 | [2] 0.045 | entospletinib -0.052

GMDS (UniProt O60547)
active: vorinostat -0.309
inactive: [1] 0.027 | silmitasertib 0.041 | [2] -0.016 | entospletinib 0.032

GNAI3 (UniProt P08754)
inactive: [1] 0.043 | vorinostat -0.021 | silmitasertib 0.015 | [2] -0.086 | entospletinib 0.1

GIT2 (UniProt Q14161)
inactive: [1] -0.072 | vorinostat 0.044 | silmitasertib -0.014 | [2] -0.04 | entospletinib 0.052

GNS (UniProt P15586)
inactive: [1] 0.019 | vorinostat 0.122 | silmitasertib -0.013 | [2] 0.002 | entospletinib 0.005

GORASP1 (UniProt Q9BQQ3)
inactive: [1] -0.041 | vorinostat -0.01 | silmitasertib 0.067 | [2] -0.018 | entospletinib -0.09
